At least one peptide structure holds a part that was inferred or is arguable (an end, a ring closure or a residue).
Columns and labels:
[1] = test system: B16-BL6 melanoma cells; assay: Experimental metastasis test of B16-BL6 melanoma cells in lung; format: in vivo, C57BL/6 female mice; settings: day 14
[2] = test system: colon 26/M3.1 cells; assay: Experimental metastasis test of colon 26/M3.1 cells in lung; format: in vivo, C57BL/6 female mice; settings: Table 13, dose 1000 µg/mouse, day 14, PBS control 148 ± 12

N=C(N)NCCC[C@H](N)C(=O)NCC(=O)N[C@@H](CC(=O)O)C(=O)N[C@@H](CO)C(=O)O [RGDS, Arg-Gly-Asp-Ser]
Number of colonies (Mean ± SD) ([1]; Table 2, dose 3000 µg/mouse i.v. mixed with cells, PBS control 141 ± 16): 86 ± 15 (71-111) | Number of colonies (Mean ± SD) ([1]; Table 3, dose 1000 µg/mouse, PBS control 81 ± 23): 89 ± 23 (55-122) | Number of colonies (Mean ± SD) ([1]; Table 4, dose 1000 µg/mouse, PBS control 96 ± 14): 83 ± 14 (63-105) | Number of colonies (Mean ± SD) ([1]; Table 5, dose 1000 µg/mouse, PBS control 118 ± 15): 80 ± 23 (52-109) | Number of colonies (Mean ± SD) ([1]; Table 6, dose 1000 µg/mouse, PBS control 103 ± 30): 132 ± 26 (99-158) | Number of colonies (Mean ± SD) ([1]; Table 10, dose 1000 µg/mouse, PBS control 237 ± 29): 234 ± 22 (204-254) | Number of colonies (Mean ± SD) ([1]; Table 11, dose 1000 µm/mouse (so in the source), PBS control 114 ± 28): 114 ± 24 (73-126)

N=C(N)NCCC[C@H](NC(=O)CN)C(=O)NCC(=O)N[C@@H](CC(=O)O)C(=O)N[C@@H](CO)C(=O)O [GRGDS, Gly-Arg-Gly-Asp-Ser]
Number of colonies (Mean ± SD) ([1]; Table 7, dose 500 µg/mouse, PBS control 101 ± 28): 93 ± 45 (44-154) | Number of colonies (Mean ± SD) ([1]; Table 8, dose 1000 µg/mouse, PBS control 168 ± 28): 108 ± 17 (85-121) | Number of colonies (Mean ± SD) ([1]; Table 9, dose 1000 µg/mouse, PBS control 168 ± 28): 108 ± 17 (85-121) | Number of colonies (Mean ± SD) [2]: 111 ± 19 (90-134)
